{
  "source": "patent US5419898A",
  "about": "“Antiallergic composition for ophthalmic or nasal use” (priority 1992, dated 1995)",
  "origin": "cited, not measured here",
  "tested_on": "eyes and nasal mucosae",
  "conditions": "high concentrations where no insoluble matter is deposited; cited from earlier work",
  "data": [
    {"molecule": "O=C(O)COCCN1CCN(C(c2ccccc2)c2ccc(Cl)cc2)CC1", "note": "(stereo not shown) [Cetirizine, [2-[4-[(4-chlorophenyl)phenylmethyl]-1-piperazinyl-]ethoxy]acetic acid]", "values": [
      {"measurement": "irritating properties in ophthalmic or nasal use", "result": "strong irritating properties"}
    ]}
  ]
}
